Amino acid sequences for entries named in this document (tags omitted).
UniProt Q0JBA9, entry or part of it: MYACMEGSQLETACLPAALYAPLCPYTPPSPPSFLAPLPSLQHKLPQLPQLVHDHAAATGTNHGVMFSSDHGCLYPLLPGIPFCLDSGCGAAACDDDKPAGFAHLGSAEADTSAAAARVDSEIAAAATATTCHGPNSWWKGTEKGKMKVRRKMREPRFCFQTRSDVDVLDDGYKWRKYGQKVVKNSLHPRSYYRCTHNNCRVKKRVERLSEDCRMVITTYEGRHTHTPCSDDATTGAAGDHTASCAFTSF

The other results are listed elsewhere or left out.
What follows are sequences tested against OsWRKY34 (Oryza sativa, UniProt Q0JBA9 1-250) (assay: protein-binding microarray (RPBM); PBS, 2% BSA, 51.3 ng/ul salmon testes DNA, 50 uM zinc acetate, 200 nM TF, 25 C, 1 h; high values mean tight binding). Details: protein: recombinant; tags: N-terminal polyhistidine and DsRed monomer fusion (pET32a); label: CyDye5-dUTP incorporated in the synthesized complementary strand; 3' TTTTT single-stranded linker to array surface; dsDNA, one strand shown.
Procedure, shortened: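 The binding signal is fluorescence intensity per array feature (arbitrary units). Readings came from an Axon 4000B scanner after a washed, 2% BSA-blocked, double-stranded custom Agilent array had been incubated for 1 h at 25 °C with 200 nM protein and 50 µM zinc acetate. The protein was a Ni–NTA-purified transcription factor fused N-terminally to polyhistidine and DsRed, expressed in E. coli BL21-CodonPlus.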
In the case of “TCCTTCTGTCAATCTGTCCACACTTTTTTCTCCCAGTGCACGGAGTCACCTAGTGCAG”, the binding signal is reported as 12000 fluorescence intensity (a.u.).
“GGTGTAGTGGTCGGTGCGGACGATGAGGTGGGAGAAATGGCGGAGTCACCTAGTGCAG” was tested, and the binding signal was 10100 fluorescence intensity (a.u.).
For “GCTGATGACGTCCCTATCGGTTCTTATCTCAGTTCCTCCCCGGAGTCACCTAGTGCAG”, the binding signal was 8140 fluorescence intensity (a.u.).
With “ACTGTTTGAGTACCTAATTTAACCCGGTTTTATAAGTTAACGGAGTCACCTAGTGCAG” the binding signal was 8700 fluorescence intensity (a.u.).
In the case of “GATCTTTCTACTACCTTATTCAACTGTTGGGTTGCCACTTCGGAGTCACCTAGTGCAG”, the binding signal is reported as 10400 fluorescence intensity (a.u.).
For “CGCTTTCACACTGCCTCTTTCGCGCAGATCCATACAAAACCGGAGTCACCTAGTGCAG”, the binding signal was 9960 fluorescence intensity (a.u.).
In the case of “GTGCTCTTCCGCTACTTGTTCCGGATAATATCCCTCTCATCGGAGTCACCTAGTGCAG”, the binding signal is reported as 9120 fluorescence intensity (a.u.).
For “CCTTCATAGTACCACCACCACCACCACTCATCACATCTCACGGAGTCACCTAGTGCAG”, the binding signal was 8160 fluorescence intensity (a.u.).
With “TATCTTAGGTGTGCTACAATTTTATACATATGTGTTTATCCGGAGTCACCTAGTGCAG” the binding signal was 8340 fluorescence intensity (a.u.).
“CTACCTCCTTTGCTTTTGGTGTCTTTGGAATCACCGACACCGGAGTCACCTAGTGCAG” was tested, and the binding signal was 8190 fluorescence intensity (a.u.).
With “AATAATGGTTTGCTTTCGTTGAACGTCTGGACGTTGGAACCGGAGTCACCTAGTGCAG” the binding signal was 8210 fluorescence intensity (a.u.).
“GATGTTTGTAAATGTTTCAATTCATATTGATCTATGGCAACGGAGTCACCTAGTGCAG” was tested, and the binding signal was 8800 fluorescence intensity (a.u.).
With “GATTGGCAGGAGCCATGTTACGTCGGTCCATCCCGTCCCGCGGAGTCACCTAGTGCAG” the binding signal was 9380 fluorescence intensity (a.u.).
“CTTTTTAGCATATGTTTGACCGTTTGTCTTATTCAAAAATCGGAGTCACCTAGTGCAG” was tested, and the binding signal was 8810 fluorescence intensity (a.u.).
“GAGGCCACCACACACTCTCTCTCTCTCTCACTCACTCACTCGGAGTCACCTAGTGCAG” was tested, and the binding signal was 12300 fluorescence intensity (a.u.).
For “GAAGTCCATGTCATTTGCAAATTGCAATTGGTCCACGAACCGGAGTCACCTAGTGCAG”, the binding signal was 8020 fluorescence intensity (a.u.).
“GCCGCTCCATCGCCCCAACCGCACGCCCGCCGTATGACGACGGAGTCACCTAGTGCAG” was tested, and the binding signal was 8750 fluorescence intensity (a.u.).
“CTGTGGTGGATAATTGGGTTCTACTGGGTGGTGTCTGGCGCGGAGTCACCTAGTGCAG” was tested, and the binding signal was 8370 fluorescence intensity (a.u.).
In the case of “CGATGTTGTGTTCGACGAAGGGCGAGGGTGGGTATGGGACCGGAGTCACCTAGTGCAG”, the binding signal is reported as 10500 fluorescence intensity (a.u.).
For “GCATACAATCCTCCCAGAGTTCCAGAACCCACAAATGCTTCGGAGTCACCTAGTGCAG”, the binding signal was 9710 fluorescence intensity (a.u.).
For “CCTGAGCCGATCCCATCCATCCCGCGAGCGAGCGAGCGCTCGGAGTCACCTAGTGCAG”, the binding signal was 8400 fluorescence intensity (a.u.).
In the case of “CATATTTGTCTTAGGTAAAAAATGTTCATGTTTTTTCTATCGGAGTCACCTAGTGCAG”, the binding signal is reported as 8080 fluorescence intensity (a.u.).
For “TATTTATGAGTTGCCGACTTGCCTTTTTCTTGTTAATATGCGGAGTCACCTAGTGCAG”, the binding signal was 8390 fluorescence intensity (a.u.).
